No constants are given. Whether binding was seen depends on the method and setting. In cells and extracts the contact can be indirect. A result given as binding can be weak or reduced; the word gives no strength.

Sequences of proteins named here, by UniProt entry; tags and fusion partners are left off. A change or cut given only in a name is not applied to a line headed by its entry.
UniProt P08173: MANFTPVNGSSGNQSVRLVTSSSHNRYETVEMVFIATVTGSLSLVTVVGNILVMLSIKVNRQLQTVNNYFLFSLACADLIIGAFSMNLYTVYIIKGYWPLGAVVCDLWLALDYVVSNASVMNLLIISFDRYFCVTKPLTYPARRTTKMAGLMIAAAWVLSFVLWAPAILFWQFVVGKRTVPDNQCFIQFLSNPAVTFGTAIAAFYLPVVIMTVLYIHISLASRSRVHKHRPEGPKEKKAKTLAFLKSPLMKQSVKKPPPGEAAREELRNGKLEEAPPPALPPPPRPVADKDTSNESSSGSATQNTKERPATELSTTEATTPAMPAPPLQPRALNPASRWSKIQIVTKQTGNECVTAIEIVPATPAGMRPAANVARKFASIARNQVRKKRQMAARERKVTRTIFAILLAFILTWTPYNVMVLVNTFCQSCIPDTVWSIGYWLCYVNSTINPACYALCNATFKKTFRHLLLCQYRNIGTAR
UniProt P01138: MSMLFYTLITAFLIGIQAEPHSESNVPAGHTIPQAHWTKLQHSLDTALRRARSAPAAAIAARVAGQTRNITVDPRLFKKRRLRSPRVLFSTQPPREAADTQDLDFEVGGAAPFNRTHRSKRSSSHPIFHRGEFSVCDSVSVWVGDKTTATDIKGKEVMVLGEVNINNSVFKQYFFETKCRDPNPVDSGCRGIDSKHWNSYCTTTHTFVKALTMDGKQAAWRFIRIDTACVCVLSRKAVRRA

Experimental findings from article PMC7782543 are described below.

In test [1] the target is cholinergic receptor muscarinic 4 (human (endogenous in LNCaP, C4-2, PC3 and NCI-H660)) (UniProt P08173). The test can be described thus: co-IP; IP of endogenous NGF or of endogenous CHRM4 from cell lysates, Western blot of CHRM4 and NGF; LNCaP and C4-2 cells cultured in CSS-containing medium for 1 week (with or without stable NGF knockdown); PC3 and NCI-H660 cells stably expressing non-target control or NGF shRNA.

For test [2], the target named is Nerve growth factor (human (endogenous in LNCaP, C4-2, PC3 and NCI-H660)) (UniProt P01138). Described as above.
For another test, the target named is recombinant NGF protein (UniProt P01138). The test can be described thus: co-IP; mixture of recombinant NGF protein and in vitro transcription/translation-synthesized Flag-CHRM4; IP of the NGF, Western blot of CHRM4 and NGF; control IgG IP as negative control; only the target purified. In general terms: In western blotting, separated proteins are transferred to a membrane and probed.

For test [3], the target named is in vitro transcription/translation-synthesized Flag-tag CHRM4 protein (UniProt P08173). In words: co-IP; mixture of recombinant NGF protein and in vitro transcription/translation-synthesized Flag-CHRM4; IP of Flag, Western blot of CHRM4 and NGF; control IgG IP as negative control; only the binder purified.

On to “Nerve growth factor (from UniProt P01138) (ligand)”, for which, in test [1], the binding entry is “binds”.

For “cholinergic receptor muscarinic 4 (from UniProt P08173 1-479)”, the binding result in test [2] is recorded as “binds”.

On to “in vitro transcription/translation-synthesized Flag-tag CHRM4 protein (from UniProt P08173 1-479) (receptor)”, for which, in the test with recombinant NGF protein, the binding entry is given as “binds”.

As for “recombinant NGF protein (from UniProt P01138) (ligand)”, in test [3], the binding entry is “binds”.
